The nature of the series: general procedure: Boc solid-phase peptide synthesis; p-methyl BHA resin (Applied Biosystems Inc.); HOBt/DCC. The settings on record: whole synthesis, scale 0.50 g protected peptide resin.

As to PACAP27 NH2, the isolated mass came to 129 mg (run 1) and 17.2 mg (run 2).
